From article PMC8209548 come the findings set out here.

Amino acid sequences for entries named in this document (tags omitted). Residues count along the entry.
UniProt Q13153, residues 67-150: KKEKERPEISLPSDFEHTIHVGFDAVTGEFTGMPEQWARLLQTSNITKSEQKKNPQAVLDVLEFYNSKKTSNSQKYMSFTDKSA
UniProt P60766: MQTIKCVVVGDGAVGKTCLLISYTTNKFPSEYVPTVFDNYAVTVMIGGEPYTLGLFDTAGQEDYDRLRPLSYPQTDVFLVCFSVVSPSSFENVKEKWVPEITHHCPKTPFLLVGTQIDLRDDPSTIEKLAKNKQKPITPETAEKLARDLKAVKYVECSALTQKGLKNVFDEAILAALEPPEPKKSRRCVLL
UniProt Q9QUI0: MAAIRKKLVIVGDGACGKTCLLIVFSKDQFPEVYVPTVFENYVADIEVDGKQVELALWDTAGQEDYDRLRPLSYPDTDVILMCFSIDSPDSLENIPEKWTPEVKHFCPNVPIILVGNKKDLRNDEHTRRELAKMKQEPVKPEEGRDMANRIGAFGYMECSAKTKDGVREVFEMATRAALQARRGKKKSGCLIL

The target of assay [1] is GTPase-binding domain (PBD) of human PAK1 (amino acids 67-150) in fusion with GST (human) (UniProt Q13153). In words: pull-down; PBD-GST on beads; VIC lysates (NP-40-soluble fraction) incubated with 100 μM GTPγS before precipitation; binding buffer 25 mM Tris-HCl pH 7.4, 1 mM DTT, 30 mM MgCl2, 40 mM NaCl, 0.5% Nonidet P-40, 1 h at 4°C; pellets and supernatants immunoblotted for Cdc42 and Rac1; only the target purified. In general terms: Immunoblotting shows a protein as a band on a membrane.

Assay [2] has the same target. In words: pull-down; GTP-loaded PBD-GST beads; lysates of VICs without added nucleotide, cells treated beforehand (with or without 1 μg/ml PN, PN shRNAs, Src inhibitor PP2, Fak Y397F, α5 and β1 integrin blocking antibodies, FLNA constructs); bound Cdc42, Rac1 or RhoA immunoblotted and normalised to the total in the lysate; only the target purified.
For assay [3] the target is unchanged. Briefly: condition: only in the presence of an excess of GDP (100 μM); pull-down; PBD-GST on beads; VIC lysates (NP-40-soluble fraction) incubated with 100 μM GDP before precipitation; binding buffer 25 mM Tris-HCl pH 7.4, 1 mM DTT, 30 mM MgCl2, 40 mM NaCl, 0.5% Nonidet P-40, 1 h at 4°C; pellets and supernatants immunoblotted for Cdc42 and Rac1; only the target purified.

Results are given in words; binding and its absence hold for the method and conditions named. In cells and extracts the contact can be indirect. Some binding calls cover weakened binding; strength is not graded here.

As to Cdc42 (from UniProt P60766 1-191), the binding entry is recorded as “binds” in assay [1], “binds” in assay [2] and “no binding” in assay [3].
On to RhoA (from UniProt Q9QUI0 1-193), for which the binding entry in assay [2] is given as “binds”.
